The values below come from US20040001835A1, “Prevention or treatment of cancer using integrin alphavbeta3 antagonists in combination with other agents” (MedImmune, Inc., priority 2002, published 2004).

The data set concerns Rabbit αvβ3. As to the kind of experiment: 125-labeled Vitaxin binding affinities and number of binding sites on cell lines. The text has this:
^125-labeled Vitaxin® was used to determine binding affinities and number of binding sites for human, rabbit and hamster cell lines. The affinity of Vitaxin® for hamster αvβ3 was approximately 2-3 fold lower than human αvβ3 while its affinity for rabbit αvβ3 was about 4-10 fold lower than human αvβ3.

B1: Vitaxin®: humanized blocking monoclonal antibody that binds Integrin αVβ3 (MEDI-522, MedImmune); humanized and optimized version of LM609 (antibody, chains of the INN, looked up, V domains shown)
VH: QVQLVESGGGVVQPGRSLRLSCAASGFTFSSYDMSWVRQAPGKGLEWVAKVSSGGGSTYYLDTVQGRFTISRDNSKNTLYLQMNSLRAEDTAVYYCARHLHGSFASWGQGTTVTVSS
VL: EIVLTQSPATLSLSPGERATLSCQASQSISNFLHWYQQRPGQAPRLLIRYRSQSISGIPARFSGSGSGTDFTLTISSLEPEDFAVYYCQQSGSWPLTFGGGTKVEIK
As to B1, the “Binding Sites” value reads like this: (Rabbit RK1 kidney epithelium) 4.2 × 10^4; (Rabbit VX7 carcinoma) 1.6 × 10^5.
